The data set is described as follows: DNP polarization build-up and dissolution of ethylacetoacetate with the radical as polarizing agent. As to the method: Radical 1 (1.50 mg, 1.4 μmol) was dissolved in 15-Crown-5 (60.5 μl, 67.2 mg) to make a 24 mM solution. To 30 μl (33.7 mg) of this solution was added 1,3-^13C2 ethylacetoacetate (10.5 mg, 79 μmol, 158 μmol ^13C). The radical 1 concentration in the mixture was 18 mM.
43 mg of the composition prepared above were transferred from the Eppendorf tube to a sample cup and the sample cup was inserted into a DNP polarizer. The composition was polarised under DNP conditions at 1.2 K in a 3.35 T magnetic field under irradiation with microwave (93.900 GHz). The calculated solid-state polarization was 17% and the polarization build-up constant was 900 s.
The sample was dissolved in 6 ml 40 mM phosphate buffer pH 7.3+100 mg/l EDTA. A time series of 1D 13C-NMR spectra were recorded with a total delay between the pulses of 3 s. The liquid state polarization was 14% after 12 s transfer time. The pH was 7.3 in the dissolved sample. […]
43 mg of the composition prepared above were transferred from the Eppendorf tube to a sample cup and the sample cup was inserted into a DNP polarizer. […] The calculated solid-state polarization was 18% and the polarization build-up constant was 1700 s.
The sample was dissolved in 6 ml 40 mM phosphate buffer pH 7.3+100 mg/l EDTA. A time series of 1D 13C-NMR spectra were recorded with a total delay between the pulses of 3 s. […]

As for “tris{8-carboxyl-2,2,6,6-tetramethyl-benzo(1,2-d:4,5-dS)bis(1,3)dithiole-4-yl}methyl sodium salt [Radical 1, reference compound]”, under “18 mM radical in 15-Crown-5 / 1,3-13C2 ethylacetoacetate, DNP at 1.2 K, 3.35 T, microwave irradiation”, the calculated solid-state polarization is reported as 17%. Besides, under “after 12 s transfer time, dissolved in 6 ml 40 mM phosphate buffer pH 7.3 + 100 mg/l EDTA”, the liquid state polarization is on record as 14%.
